Reference: patent US5292757A, “1,4-dihydropyridine compounds useful as reverse resistance agents” (Ajinomoto Company, Inc., priority 1991, dated 1994)
The name of at least one read-out is uncertain.

Tested on: Vincristine-resistant P388 leukemia cells
Experiment: Test of Enhancement of Therapeutic Effect in Mice with Vincristine-resistant P388 Leukemia
Format: in vivo, mouse (CDF1)
Settings: 70 mg/kg, i.p., with vincristine 100 μg/kg i.p.

COc1ccc(CCN(C)CCCC(C#N)(c2ccc(OC)c(OC)c2)C(C)C)cc1OC (centres unmarked) [Verapamil, reference compound]
T/V (1 × 5 (times/day × days)): 125%
T/V (2 × 5 (times/day × days)): 128%
